Experimental data from patent US7981915B2, “Methods for modulating PPAR biological activity for the treatment of diseases caused by mutations in the CFTR gene” (Beth Israel Deaconess Medical Center, priority 2003, dated 2011).

System: TNFα
Assay: Liver TNFα levels by sandwich ELISA
Type: in vivo, mice

dextran sodium sulfate [DSS] was tested, and the “liver TNFα levels, with versus without DSS” value (WT mice) was “no difference” and the “liver TNFα levels, absence versus presence of DSS” value (cftr−/− mice) was “no statistically significant difference”.
